These results are taken from the supplement of paper PMC12819154, “High-throughput peptide-centric local stability assay extends protein–ligand identification to membrane proteins, tissues and bacteria” (Nature Structural & Molecular Biology, 2025).

Sequences of proteins named here, by UniProt entry; tags and fusion partners are left off. A change or cut given only in a name is not applied to a line headed by its entry.
UniProt Q8VDI1: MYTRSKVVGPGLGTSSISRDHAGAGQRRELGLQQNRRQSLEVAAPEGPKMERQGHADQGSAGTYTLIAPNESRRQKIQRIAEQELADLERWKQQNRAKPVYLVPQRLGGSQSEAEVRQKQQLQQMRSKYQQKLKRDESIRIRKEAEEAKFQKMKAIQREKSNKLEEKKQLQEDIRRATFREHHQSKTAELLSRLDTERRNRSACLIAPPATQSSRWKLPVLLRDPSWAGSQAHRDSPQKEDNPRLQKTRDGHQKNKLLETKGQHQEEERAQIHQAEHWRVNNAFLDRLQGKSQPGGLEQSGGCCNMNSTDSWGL
UniProt Q8VCZ9: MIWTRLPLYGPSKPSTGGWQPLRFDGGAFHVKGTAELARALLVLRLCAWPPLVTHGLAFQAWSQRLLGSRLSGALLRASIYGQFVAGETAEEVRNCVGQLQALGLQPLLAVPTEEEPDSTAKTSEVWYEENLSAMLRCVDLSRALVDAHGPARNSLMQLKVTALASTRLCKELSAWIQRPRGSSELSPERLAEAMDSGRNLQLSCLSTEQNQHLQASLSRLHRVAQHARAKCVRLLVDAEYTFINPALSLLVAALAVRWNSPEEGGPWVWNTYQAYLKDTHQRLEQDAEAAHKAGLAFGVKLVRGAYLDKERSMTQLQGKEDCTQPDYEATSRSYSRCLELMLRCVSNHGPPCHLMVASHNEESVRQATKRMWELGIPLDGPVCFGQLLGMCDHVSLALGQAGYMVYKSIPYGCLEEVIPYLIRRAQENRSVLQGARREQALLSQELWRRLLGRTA
UniProt Q8VDI9: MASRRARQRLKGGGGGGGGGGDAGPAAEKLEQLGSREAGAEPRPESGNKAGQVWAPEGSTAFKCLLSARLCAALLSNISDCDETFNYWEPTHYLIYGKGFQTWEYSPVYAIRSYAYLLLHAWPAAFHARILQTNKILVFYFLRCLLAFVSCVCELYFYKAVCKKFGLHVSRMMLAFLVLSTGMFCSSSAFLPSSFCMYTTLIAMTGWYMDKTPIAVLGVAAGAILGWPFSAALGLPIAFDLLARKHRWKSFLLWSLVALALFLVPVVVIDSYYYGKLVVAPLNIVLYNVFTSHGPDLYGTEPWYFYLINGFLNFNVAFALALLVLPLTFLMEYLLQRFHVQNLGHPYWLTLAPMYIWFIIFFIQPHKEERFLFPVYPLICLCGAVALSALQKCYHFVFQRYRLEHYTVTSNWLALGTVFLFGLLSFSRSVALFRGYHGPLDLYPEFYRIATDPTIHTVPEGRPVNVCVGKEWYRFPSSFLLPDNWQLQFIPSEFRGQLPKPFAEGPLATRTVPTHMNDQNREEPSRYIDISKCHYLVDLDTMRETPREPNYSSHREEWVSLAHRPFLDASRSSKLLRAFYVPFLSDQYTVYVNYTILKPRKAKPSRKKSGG
UniProt Q8R3G1: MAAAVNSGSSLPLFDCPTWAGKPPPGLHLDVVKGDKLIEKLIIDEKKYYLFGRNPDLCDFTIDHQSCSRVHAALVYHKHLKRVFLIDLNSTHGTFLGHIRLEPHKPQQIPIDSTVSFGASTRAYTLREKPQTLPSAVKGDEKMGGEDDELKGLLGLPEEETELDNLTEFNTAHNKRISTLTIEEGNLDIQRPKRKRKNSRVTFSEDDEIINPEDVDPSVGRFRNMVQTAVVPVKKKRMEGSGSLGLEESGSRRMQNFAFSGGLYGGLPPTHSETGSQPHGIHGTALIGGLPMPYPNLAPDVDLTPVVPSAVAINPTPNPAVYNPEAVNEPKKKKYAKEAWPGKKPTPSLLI
UniProt Q8VDC1: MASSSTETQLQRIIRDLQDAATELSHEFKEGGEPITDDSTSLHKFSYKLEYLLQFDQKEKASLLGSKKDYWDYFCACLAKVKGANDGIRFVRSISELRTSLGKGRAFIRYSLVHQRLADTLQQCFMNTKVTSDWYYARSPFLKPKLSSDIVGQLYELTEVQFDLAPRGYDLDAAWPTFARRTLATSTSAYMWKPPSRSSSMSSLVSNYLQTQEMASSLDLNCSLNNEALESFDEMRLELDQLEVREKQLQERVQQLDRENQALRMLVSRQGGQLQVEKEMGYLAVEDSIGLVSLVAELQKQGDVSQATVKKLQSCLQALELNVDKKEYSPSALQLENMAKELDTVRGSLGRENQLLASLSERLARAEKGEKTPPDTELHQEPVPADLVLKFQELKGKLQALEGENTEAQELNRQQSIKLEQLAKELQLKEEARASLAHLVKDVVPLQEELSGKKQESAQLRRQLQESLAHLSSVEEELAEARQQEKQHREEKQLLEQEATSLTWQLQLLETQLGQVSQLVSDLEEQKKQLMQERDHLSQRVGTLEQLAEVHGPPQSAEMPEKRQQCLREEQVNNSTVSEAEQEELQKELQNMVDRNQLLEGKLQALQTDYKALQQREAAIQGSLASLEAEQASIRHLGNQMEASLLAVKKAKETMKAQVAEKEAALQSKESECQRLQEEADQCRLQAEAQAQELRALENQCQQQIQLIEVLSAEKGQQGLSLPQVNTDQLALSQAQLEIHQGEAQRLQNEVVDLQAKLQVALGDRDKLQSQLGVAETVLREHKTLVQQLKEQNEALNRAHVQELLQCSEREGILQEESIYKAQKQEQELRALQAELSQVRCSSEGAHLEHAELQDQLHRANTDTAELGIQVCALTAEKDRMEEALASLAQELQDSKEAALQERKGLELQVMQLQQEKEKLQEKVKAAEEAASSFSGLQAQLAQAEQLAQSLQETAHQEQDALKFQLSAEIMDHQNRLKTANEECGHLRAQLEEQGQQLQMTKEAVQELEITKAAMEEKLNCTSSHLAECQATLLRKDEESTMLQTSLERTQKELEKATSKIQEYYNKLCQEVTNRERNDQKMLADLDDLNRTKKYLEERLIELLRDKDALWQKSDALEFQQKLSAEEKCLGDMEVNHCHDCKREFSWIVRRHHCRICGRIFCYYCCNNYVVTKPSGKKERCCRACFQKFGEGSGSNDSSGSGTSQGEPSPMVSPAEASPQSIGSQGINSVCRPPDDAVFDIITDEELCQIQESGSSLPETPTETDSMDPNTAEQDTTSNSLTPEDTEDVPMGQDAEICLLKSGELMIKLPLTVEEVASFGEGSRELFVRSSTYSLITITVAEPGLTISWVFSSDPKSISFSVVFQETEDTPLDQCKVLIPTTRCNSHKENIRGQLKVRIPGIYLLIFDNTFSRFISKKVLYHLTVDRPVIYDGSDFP
UniProt Q8R4Y4: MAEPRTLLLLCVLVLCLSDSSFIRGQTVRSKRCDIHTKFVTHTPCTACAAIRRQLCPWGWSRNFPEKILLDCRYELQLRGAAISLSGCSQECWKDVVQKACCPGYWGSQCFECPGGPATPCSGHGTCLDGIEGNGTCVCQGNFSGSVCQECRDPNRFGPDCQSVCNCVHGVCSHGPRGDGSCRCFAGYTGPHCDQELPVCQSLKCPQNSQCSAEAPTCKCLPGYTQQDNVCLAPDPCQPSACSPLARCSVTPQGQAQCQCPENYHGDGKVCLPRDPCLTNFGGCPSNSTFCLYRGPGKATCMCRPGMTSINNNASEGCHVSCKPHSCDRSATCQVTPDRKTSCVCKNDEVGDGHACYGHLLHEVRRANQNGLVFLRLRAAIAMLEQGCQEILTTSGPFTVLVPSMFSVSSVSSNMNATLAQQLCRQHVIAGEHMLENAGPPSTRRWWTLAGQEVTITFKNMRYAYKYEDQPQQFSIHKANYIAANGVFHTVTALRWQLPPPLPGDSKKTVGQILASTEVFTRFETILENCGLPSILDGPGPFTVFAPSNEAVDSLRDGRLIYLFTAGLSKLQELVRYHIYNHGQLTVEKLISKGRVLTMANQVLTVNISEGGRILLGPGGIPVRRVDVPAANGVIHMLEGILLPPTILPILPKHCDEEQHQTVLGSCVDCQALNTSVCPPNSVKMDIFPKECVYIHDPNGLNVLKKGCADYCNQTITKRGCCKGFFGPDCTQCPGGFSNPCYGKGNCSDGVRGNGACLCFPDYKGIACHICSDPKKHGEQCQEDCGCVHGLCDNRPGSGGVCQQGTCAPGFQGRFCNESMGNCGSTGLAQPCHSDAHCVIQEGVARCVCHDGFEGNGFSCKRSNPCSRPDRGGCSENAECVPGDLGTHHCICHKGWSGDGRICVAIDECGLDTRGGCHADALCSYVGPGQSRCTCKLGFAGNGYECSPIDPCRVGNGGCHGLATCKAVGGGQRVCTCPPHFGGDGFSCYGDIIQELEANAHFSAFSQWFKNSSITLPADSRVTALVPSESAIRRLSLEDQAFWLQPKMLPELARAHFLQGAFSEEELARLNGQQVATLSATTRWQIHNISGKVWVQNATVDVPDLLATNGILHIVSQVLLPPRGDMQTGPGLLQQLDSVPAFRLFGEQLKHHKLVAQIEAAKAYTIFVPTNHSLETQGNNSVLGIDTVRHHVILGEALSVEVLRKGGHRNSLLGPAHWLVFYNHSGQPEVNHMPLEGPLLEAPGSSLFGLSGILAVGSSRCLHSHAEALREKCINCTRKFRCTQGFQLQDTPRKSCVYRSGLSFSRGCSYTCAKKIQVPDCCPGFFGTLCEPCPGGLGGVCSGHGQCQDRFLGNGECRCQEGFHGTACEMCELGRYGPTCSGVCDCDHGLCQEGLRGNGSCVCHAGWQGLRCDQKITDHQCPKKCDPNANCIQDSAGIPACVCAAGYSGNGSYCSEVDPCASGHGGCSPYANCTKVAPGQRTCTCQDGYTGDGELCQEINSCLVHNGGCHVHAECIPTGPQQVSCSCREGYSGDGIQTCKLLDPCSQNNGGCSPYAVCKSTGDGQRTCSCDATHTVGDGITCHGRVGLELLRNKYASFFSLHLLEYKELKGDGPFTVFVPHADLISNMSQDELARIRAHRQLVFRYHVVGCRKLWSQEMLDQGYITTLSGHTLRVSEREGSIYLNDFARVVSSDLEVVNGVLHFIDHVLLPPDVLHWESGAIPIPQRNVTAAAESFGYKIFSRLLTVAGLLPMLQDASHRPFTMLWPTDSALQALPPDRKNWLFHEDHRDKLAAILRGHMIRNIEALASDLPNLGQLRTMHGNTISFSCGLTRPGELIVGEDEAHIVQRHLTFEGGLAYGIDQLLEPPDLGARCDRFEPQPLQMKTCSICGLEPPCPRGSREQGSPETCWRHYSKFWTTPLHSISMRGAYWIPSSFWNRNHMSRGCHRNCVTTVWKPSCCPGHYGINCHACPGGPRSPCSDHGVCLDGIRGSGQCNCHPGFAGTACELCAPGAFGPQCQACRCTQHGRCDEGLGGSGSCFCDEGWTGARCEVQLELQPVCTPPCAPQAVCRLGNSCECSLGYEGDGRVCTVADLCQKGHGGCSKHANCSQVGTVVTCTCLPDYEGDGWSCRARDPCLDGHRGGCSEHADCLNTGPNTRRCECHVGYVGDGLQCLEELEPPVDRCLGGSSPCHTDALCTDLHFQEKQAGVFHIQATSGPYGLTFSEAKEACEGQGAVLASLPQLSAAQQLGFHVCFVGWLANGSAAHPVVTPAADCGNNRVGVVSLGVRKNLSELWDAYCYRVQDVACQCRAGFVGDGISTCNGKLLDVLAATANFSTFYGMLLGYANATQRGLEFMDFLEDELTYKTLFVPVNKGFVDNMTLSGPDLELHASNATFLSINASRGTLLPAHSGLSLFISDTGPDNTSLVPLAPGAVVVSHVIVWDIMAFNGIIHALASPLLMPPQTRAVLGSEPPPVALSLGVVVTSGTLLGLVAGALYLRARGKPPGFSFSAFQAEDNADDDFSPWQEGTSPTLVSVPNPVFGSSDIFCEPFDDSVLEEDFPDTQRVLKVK
UniProt Q8VEL2: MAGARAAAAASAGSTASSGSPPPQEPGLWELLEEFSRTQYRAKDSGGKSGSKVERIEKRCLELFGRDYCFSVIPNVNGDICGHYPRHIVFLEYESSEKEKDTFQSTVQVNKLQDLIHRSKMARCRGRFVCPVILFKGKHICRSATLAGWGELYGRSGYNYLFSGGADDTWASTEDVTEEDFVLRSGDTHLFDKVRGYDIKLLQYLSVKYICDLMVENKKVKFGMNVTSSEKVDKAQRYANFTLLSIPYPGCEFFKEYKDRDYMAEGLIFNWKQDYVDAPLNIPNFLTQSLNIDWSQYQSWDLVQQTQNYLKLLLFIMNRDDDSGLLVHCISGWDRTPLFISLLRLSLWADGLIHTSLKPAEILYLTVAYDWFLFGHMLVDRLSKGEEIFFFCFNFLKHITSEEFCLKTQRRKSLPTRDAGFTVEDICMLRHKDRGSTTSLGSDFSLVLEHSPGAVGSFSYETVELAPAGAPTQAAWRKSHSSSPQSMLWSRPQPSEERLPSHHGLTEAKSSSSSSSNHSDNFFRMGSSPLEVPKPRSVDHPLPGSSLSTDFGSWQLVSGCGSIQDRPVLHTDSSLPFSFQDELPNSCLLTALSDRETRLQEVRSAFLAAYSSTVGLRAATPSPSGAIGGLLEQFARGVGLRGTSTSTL
UniProt Q8VCS6: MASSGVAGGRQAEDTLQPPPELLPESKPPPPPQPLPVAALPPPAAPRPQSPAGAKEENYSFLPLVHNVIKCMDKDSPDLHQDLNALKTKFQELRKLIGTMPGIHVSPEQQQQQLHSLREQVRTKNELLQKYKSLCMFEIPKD

Some of the results follow. Most entries show no effect beyond the scatter of the controls.

Compound in this assay: CN[C@@H]1C[C@H]2O[C@@](C)([C@@H]1OC)n1c3ccccc3c3c4c(c5c6ccccc6n2c5c31)C(=O)NC4 [staurosporine]
Briefly: log2 fold change of tryptic peptide abundance, ligand vs vehicle (limited proteolysis) (log2 ratio); higher = more trypsin-susceptible (destabilized). To be noted: ligand concentration: 20 uM; sample: mouse liver crude lysate; replicate design: treated separately.
With “UniProt Q8VDM6 (peptide sequence: LKVNELR, peptide start residue: 6)”, the log2 fold change was 0.0902.

For the target “UniProt Q8VDI1 (peptide sequence: AKPVYLVPQR, peptide start residue: 97)”, the log2 fold change was 0.57.

Turning to “UniProt Q8VCZ6 (peptide sequence: DHENYVACLR, peptide start residue: 470)”, the log2 fold change is -0.139.

Consider “UniProt Q8R5H1 (peptide sequence: MIVTDIYNHR, peptide start residue: 520)”, for which the log2 fold change was found to be 0.383.

Turning to “UniProt Q8VDD5 (peptide sequence: CQYLQAEKKK, peptide start residue: 931)”, the log2 fold change is -0.693.

With “UniProt Q8VBU8 (peptide sequence: CAIIPSDMLHISTNCR, peptide start residue: 239)”, the log2 fold change was determined as 0.46.

With “UniProt Q8R3C6 (peptide sequence: SEEEAQAALNHFHR, peptide start residue: 51)”, the log2 fold change was -0.288.

As to “UniProt Q8VCZ9 (peptide sequence: LCKELSAWIQRPR, peptide start residue: 169)”, the log2 fold change was 0.781.

Turning to “UniProt Q8VDI9 (peptide sequence: LKGGGGGGGGGGDAGPAAEK, peptide start residue: 10)”, the log2 fold change is -0.143.

Turning to “UniProt Q8VBT6 (peptide sequence: GTDGVTLGSQAER, peptide start residue: 733)”, the log2 fold change is -0.253.

For the target “UniProt Q8VEM8 (peptide sequence: GSTASQVLQR, peptide start residue: 291)”, the log2 fold change was determined as 0.183.

In the case of “UniProt Q8R574 (peptide sequence: EKPPITVVGDVGGR, peptide start residue: 237)”, the log2 fold change is -0.229.

On to “UniProt Q8R5K2 (peptide sequence: LGSLWPGLSPPHK, peptide start residue: 411)”, for which the log2 fold change is -0.218.

“UniProt Q8R3G1 (peptide sequence: VFLIDLNSTHGTFLGHIR, peptide start residue: 83)”: the log2 fold change is -0.398.

For “UniProt Q8VCI7 (peptide sequence: VTPWLAQASK, peptide start residue: 226)”, the log2 fold change is -0.0785.

For “UniProt Q8VCG9 (peptide sequence: TCTYEGCR, peptide start residue: 100)”, the log2 fold change was determined as 0.0522.

Regarding “UniProt Q8VCU1 (peptide sequence: SLNILDKLEHLSR, peptide start residue: 355)”, the log2 fold change is 0.0883.

For the target “UniProt Q8VBW6 (peptide sequence: YLAQWYNETNGRIPK, peptide start residue: 221)”, the log2 fold change came to 0.371.

With “UniProt Q8VCH5 (peptide sequence: GAQPVEDVK, peptide start residue: 169)”, the log2 fold change was -0.132.

In the case of “UniProt Q8VC12 (peptide sequence: WAGVPHAPVR, peptide start residue: 23)”, the log2 fold change was found to be 0.535.

“UniProt Q8VDC1 (peptide sequence: FQLSAEIMDHQNR, peptide start residue: 964)”: the log2 fold change is 0.383.

For the target “UniProt Q8VBW5 (peptide sequence: DHMCHPHGIMIIEDPTTLNKPEK, peptide start residue: 425)”, the log2 fold change was determined as 0.463.

On to “UniProt Q8VCI0 (peptide sequence: VADIFLASQYK, peptide start residue: 495)”, for which the log2 fold change is -0.25.

With “UniProt Q8VE91 (peptide sequence: SHKDDSELDFSALCPK, peptide start residue: 259)”, the log2 fold change was 0.175.

As for “UniProt Q8VEH8 (peptide sequence: VNIHEYYLGNMLAK, peptide start residue: 144)”, the log2 fold change was -0.275.

Consider “UniProt Q8VDP2 (peptide sequence: TNIYTQK, peptide start residue: 129)”, for which the log2 fold change was -0.197.

In the case of “UniProt Q8VC19 (peptide sequence: ASLELQEDVQEMHAVRK, peptide start residue: 128)”, the log2 fold change was -0.143.

Consider “UniProt Q8R4Y4 (peptide sequence: SGLSFSRGCSYTCAK, peptide start residue: 1300)”, for which the log2 fold change was -0.219.

With “UniProt Q8R307 (peptide sequence: KLAGLKPTER, peptide start residue: 476)”, the log2 fold change stood at 0.464.

With “UniProt Q8VEE4 (peptide sequence: FIVNTLKDGR, peptide start residue: 82)”, the log2 fold change was determined as 0.493.

With “UniProt Q8VEL2 (peptide sequence: DTFQSTVQVNK, peptide start residue: 101)”, the log2 fold change is 0.664.

On to “UniProt Q8R395 (peptide sequence: YSVALVLK, peptide start residue: 202)”, for which the log2 fold change was -0.432.

Take “UniProt Q8R5F7 (peptide sequence: NCSMLVCSGENIHVIEK, peptide start residue: 909)”: the log2 fold change came to 0.33.

Take “UniProt Q8VCX5 (peptide sequence: KVMEYENR, peptide start residue: 112)”: the log2 fold change is -0.201.

As for “UniProt Q8VCS6 (peptide sequence: TKNELLQK, peptide start residue: 123)”, the log2 fold change is -0.0502.

Turning to “UniProt Q8VDQ1 (peptide sequence: TLYLSVDPYMR, peptide start residue: 43)”, the log2 fold change turned out to be 0.248.

For “UniProt Q8R4U0 (peptide sequence: RFESEDDIDALAFGK, peptide start residue: 2500)”, the log2 fold change is -0.166.
